Results are given in words; binding and its absence hold for the method and conditions named. Binding seen in cells or lysates may run through a third protein. Some results given as binding are weak or reduced against the parent protein; the word gives no strength.
Columns and labels:
[1] = molecular target: T1, CRTH2 (chemoattractant homologous receptor expressed on Th2 cells), endogenous mouse protein (mouse) (UniProt Q9Z2J6); experiment: co-immunoprecipitation from mouse lung lysates (FIG. 6A legend)
T1 sequence (looked up): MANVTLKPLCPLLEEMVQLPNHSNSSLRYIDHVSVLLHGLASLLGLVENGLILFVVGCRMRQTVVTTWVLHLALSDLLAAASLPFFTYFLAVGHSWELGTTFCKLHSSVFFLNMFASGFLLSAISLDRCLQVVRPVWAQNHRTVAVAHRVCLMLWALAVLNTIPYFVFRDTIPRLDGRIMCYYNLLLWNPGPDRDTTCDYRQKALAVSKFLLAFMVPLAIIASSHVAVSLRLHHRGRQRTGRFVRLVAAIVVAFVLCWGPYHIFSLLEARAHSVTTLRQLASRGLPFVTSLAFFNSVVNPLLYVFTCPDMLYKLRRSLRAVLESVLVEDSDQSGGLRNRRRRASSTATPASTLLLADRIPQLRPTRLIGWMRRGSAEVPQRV

Sequences of proteins named here, by UniProt entry; tags and fusion partners are left off. Residues count along the entry.
UniProt Q61362, residues 30-389: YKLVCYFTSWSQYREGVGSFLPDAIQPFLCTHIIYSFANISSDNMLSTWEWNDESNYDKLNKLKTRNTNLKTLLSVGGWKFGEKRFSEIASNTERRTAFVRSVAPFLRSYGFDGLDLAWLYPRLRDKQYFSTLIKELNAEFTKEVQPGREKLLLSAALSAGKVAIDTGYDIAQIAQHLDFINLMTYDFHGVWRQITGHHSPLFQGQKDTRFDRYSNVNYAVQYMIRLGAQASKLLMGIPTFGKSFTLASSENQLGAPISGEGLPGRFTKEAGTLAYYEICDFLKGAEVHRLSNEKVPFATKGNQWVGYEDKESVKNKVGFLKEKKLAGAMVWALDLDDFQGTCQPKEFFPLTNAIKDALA

[2] = molecular target: T1, CRTH2 (chemoattractant homologous receptor expressed on Th2 cells), endogenous mouse protein (mouse); experiment: co-immunoprecipitation (summary in the discussion of Example 1)
[3] = molecular target: T1, CRTH2 (chemoattractant homologous receptor expressed on Th2 cells), endogenous mouse protein (mouse); experiment: co-immunoprecipitation from mouse lung lysates (WT and IL-13 Tg), Western immunoblot

Measured: binding

CHI3L1 (chitinase 3-like-1), endogenous mouse protein in lung lysate (from UniProt Q61362 30-389) (ligand)
binds: all assays above
